Data from paper PMC6181050.

Molecular target: T1, PSAG (Chlamydomonas reinhardtii) (UniProt P14224)
T1 sequence: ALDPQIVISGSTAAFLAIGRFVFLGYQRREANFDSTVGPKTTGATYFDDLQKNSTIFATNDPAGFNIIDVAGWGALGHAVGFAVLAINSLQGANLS
Assay: cross-linking; isolated PSI-LHCI supercomplex preparation (0.2 mg Chl/mL, 200 mM HEPES-NaOH pH 8, 0.05% beta-DDM) treated with 0.5 mM DSG on ice for 2 h; product identified by immunoblotting

Q: How did the binding turn out when LHCA1 (Chlamydomonas reinhardtii) was run?
A: binds

No constants are given. Whether binding was seen depends on the method and setting. Binding seen in cells or lysates may run through a third protein. Binding calls can cover weak binding; strength is not graded here.
